Laboratory results from paper PMC11446229.
No constants are given. Whether binding was seen depends on the method and setting. Some results given as binding are weak or reduced against the parent protein; the word gives no strength.

Key:
[1] = biological target: T1, SufS, cysteine desulfurase of the SUF system (E. coli) (UniProt P77444); assay: native MS; CyaY added to SufS in the absence of SufE, with or without 1 mM DTT; both purified
T1 sequence: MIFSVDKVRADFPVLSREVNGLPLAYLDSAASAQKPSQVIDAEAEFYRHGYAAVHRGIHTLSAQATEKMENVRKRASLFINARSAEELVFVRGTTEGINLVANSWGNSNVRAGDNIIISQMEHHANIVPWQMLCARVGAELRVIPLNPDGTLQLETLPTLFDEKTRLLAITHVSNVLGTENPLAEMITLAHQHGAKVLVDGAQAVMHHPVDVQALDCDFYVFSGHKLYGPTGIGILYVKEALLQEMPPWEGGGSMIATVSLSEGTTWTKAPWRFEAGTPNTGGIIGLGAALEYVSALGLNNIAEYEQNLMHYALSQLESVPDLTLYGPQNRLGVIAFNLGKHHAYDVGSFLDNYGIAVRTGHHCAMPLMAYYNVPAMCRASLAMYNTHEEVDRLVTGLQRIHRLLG

[2] = biological target: T1, SufS, cysteine desulfurase of the SUF system (E. coli); assay: native MS; 8-fold excess of CyaY added to equimolar IscS and SufS (8 uM each, 4 uM dimeric species); both purified

binding [1]: binds weakly
binding [2]: binds weakly
B1: CyaY, the frataxin homolog of Escherichia coli (protein, UniProt P27838 1-106)
chain: MNDSEFHRLADQLWLTIEERLDDWDGDSDIDCEINGGVLTITFENGSKIIINRQEPLHQVWLATKQGGYHFDLKGDEWICDRSGETFWDLLEQAATQQAGETVSFR
